Substitutions are numbered along the chain they refer to. No constants are given. Whether binding was seen depends on the method and setting. Binding seen in cells or lysates may run through a third protein. Some binding calls cover weakened binding; strength is not graded here. Tags and fused reporters may be left off the sequences shown.

The record followed here is article PMC12147180.

The target in assay [1] is T1, CCR9-RlucII (human) (UniProt P51686).
T1 sequence: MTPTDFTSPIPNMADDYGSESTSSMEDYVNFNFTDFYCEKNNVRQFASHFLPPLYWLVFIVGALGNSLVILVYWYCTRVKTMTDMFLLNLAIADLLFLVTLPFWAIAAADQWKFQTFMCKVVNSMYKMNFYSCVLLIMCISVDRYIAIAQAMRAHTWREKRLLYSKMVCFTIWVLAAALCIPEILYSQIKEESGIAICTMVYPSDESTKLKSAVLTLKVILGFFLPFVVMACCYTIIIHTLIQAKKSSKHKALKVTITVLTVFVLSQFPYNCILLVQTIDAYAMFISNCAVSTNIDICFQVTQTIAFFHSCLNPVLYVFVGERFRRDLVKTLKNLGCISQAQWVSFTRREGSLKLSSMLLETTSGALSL
Kind of assay: FRET or BRET; as a2, but in HEK293 ΔGRK2/3/5/6 cells (no GRK phosphorylation of the receptor); 200 nM CCL25 or a titration of CCL25.

Assay [2] has as its target T2, CCR9 C2 (CCR9-RlucII with T362A/T363A/S364A/S368A) (human) (UniProt P51686).
T2 sequence: T1 sequence with T362A, T363A, S364A, S368A
Kind of assay: FRET or BRET; live HEK293 cells (parental; also ΔGRK2/3 and ΔGRK5/6 cells, where recruitment was only partially impacted) co-transfected with CCR9-RlucII (WT or ST/A mutants) and GFP10-β-arrestin2; 200 nM CCL25 or a titration of CCL25; HBSS + 0.1% BSA, Prolume Purple, 37 °C. On the technique in general: In BRET a luciferase serves as donor, and the signal depends on an acceptor being close.

Assay [3] addresses T1, CCR9-RlucII (human). The description is as above.

On to “GFP10-β-arrestin2 (from UniProt P32121 1-409)”, for which the binding entry in assay [1] is recorded as “binds weakly”; in assay [2] it was “binds”; in assay [3] it was “binds”.
